Experimental data: PubChem BioAssay AID1159584 (Peter MacCallum Cancer Centre, 2016)
Shown is an unselected part of about 18,000 reagents. Further read-outs or replicates are left out here. The record does not give: the amount of reagent, the time to read-out.

Assay: 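Genes whose loss is lethal only together with E-cadherin loss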 (primary screen)
Cells: human MCF10A breast epithelial cells, parental and CDH1-null
Reagents: siRNA against human genes
Measurement: 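Cell viability by CellTiter-Glo ATP luminescence, each line scaled to the mean of mock wells across plates, then CDH1-null over parental ratio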
Reading the numbers: CDH1-null / parental viability ratio: higher = CDH1-null cells survive relatively better than parental

The opening 2 records, ahead of the listing:
no.	target gene	CDH1-null / parental viability ratio
1	UTS2	1.02
2	CKAP2L	0.97

Main list, from the first entry:
no.	target gene	CDH1-null / parental viability ratio
1	UTS2	1.02
2	CKAP2L	0.97
3	GJA10	0.97
4	RNF44	0.95
5	TPCN2	1.32
6	MAP2K3	1.14
7	CYP4A11	1.3
8	CYP21A2	1.08
9	DGKG	0.89
10	GPR78	1.48
11	BRD3	0.93
12	SNX18	1.19
13	CSMD3	0.79
14	CYB5A	1.05
15	RMI1	0.97
16	RBM7	1.6
17	MRPL3	1.14
18	ZNF134	0.77
19	TRIM10	1.05
20	HNRNPM	1.1
21	TBC1D22B	1.02
22	PHF6	0.98
23	PDPN	1
24	STX8	1.03
25	CLDN2	1.16
26	SALL4	1.21
27	UBQLN2	1.21
28	PANX3	1.14
